The values below come from PMC3303803, “Identification of the First Functional Toxin-Antitoxin System in Streptomyces” (PLoS ONE, 2012).

The target in the experiment is T1, S. lividans toxin YoeB-His6sl (Streptomyces lividans) (UniProt Q9Z4V8).
T1 sequence: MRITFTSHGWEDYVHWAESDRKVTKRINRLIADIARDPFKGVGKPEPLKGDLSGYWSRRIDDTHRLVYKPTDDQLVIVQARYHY
Description: co-purification on NTA-Ni resin.

No constants are given. Whether binding was seen depends on the method and setting. Some binding calls cover weakened binding; strength is not graded here. Where a sequence is shown, tags or fusion partners need not be part of it.

B1: S. lividans antitoxin YefMsl (untagged, co-expressed with YoeB-His6sl from pET22b-TA) (protein, UniProt Q9Z4V7 1-87)
chain: MSITASEARQNLFPLIEQVNEDHAPVHITSRKGNAVLMSEEDFTAWTETVHLLRSPRNARRLLDSIAEAEAGDATEHDLIDPDAERA
For B1, the binding entry was “binds”.
